Test results reported in patent US20190269792A1, “NANOPARTICLE COMPOSITIONS COMPRISING CD38 AND METHODS OF USE THEREOF” (Washington University, priority 2016, published 2019).
Some of these results come from one statement about several compounds together.

Assay: Side effects in vivo (weight loss, hair loss, histological tissue damage)
Set-up: species or system SCID mice
Details: 5 weeks treatment period, BTZ 1 mg/kg once a week
Procedure: MM1s-GFP-Luc cells were injected into forty female, 7-week old SCID mice i.v. at the concentration of 2×10^6 cells per mouse and tumor progression was evaluated using BLI. After 4 weeks, tumor bearing mice were randomized into 4 groups of 10 animals each and treated with: (i) vehicle, (ii) BTZ as a free drug (1 mg/kg once a week), (iii) non-targeted NPs loaded with BTZ equivalent amounts to 1 mg/kg (once a week), (iv) and anti-CD38 NPs loaded with BTZ equivalent amounts to 1 mg/kg (once a week). Tumor progression was followed in the 4 groups twice a week (for 5 weeks) by BLI; moreover the survival, weight, and general health of the animals was followed. In addition, 3 mice were taken from each group 3 weeks after the beginning of the treatment, and specimens of the BM, blood smear, spleen, liver, kidney, brain, spinal-cord and intestine were fixed and pathologically evaluated for treatment efficacy and histological tissue damage.

## CC(C)C[C@H](NC(=O)[C@H](Cc1ccccc1)NC(=O)c1cnccn1)B(O)O [free BTZ, bortezomib]
  loss in body mass (weight loss): > 20%
